Data taken from PubChem BioAssay AID504847 (National Center for Advancing Translational Sciences (NCATS), 2011).
Among all 400,000 compounds or so, about 3,700 (0.93%) were called active. This list was built around the results that the source calls inconclusive (neither active nor inactive); the mix of calls is not that of the screen. Calls come from the whole dose curve; as a rule, active = well fitted inhibition curve with a large enough effect; inconclusive = small, poorly fitted or top-dose-only effect, or another doubt; inactive = no such curve, though single readings can be large or run the other way. Potencies of inconclusive entries are doubtful fits and often do not repeat.

The chains behind the UniProt entries cited, without tags or fusion partners. Where a name states a change or a piece, a line headed by the entry shows the natural chain unless it says otherwise.
UniProt P11473: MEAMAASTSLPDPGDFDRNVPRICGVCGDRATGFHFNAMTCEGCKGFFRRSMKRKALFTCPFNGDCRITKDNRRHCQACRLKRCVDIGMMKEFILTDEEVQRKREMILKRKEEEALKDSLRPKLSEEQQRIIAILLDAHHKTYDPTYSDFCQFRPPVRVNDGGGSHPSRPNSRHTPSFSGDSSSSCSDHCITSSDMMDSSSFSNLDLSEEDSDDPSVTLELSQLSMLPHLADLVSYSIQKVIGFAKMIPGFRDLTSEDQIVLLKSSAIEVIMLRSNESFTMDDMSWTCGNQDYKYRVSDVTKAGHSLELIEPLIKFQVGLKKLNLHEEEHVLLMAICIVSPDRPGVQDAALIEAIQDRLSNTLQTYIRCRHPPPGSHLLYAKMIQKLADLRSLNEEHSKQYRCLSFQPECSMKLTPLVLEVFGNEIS

Each compound was assayed against Vitamin D3 receptor (Homo sapiens) (UniProt P11473) (assay: Inhibitors of the vitamin D receptor (VDR): qHTS). Settings: VDR-SRC2-3 peptide fluorescence polarization, 2 h; max response, negative = inhibition: stronger effect = lower value.
Procedure, shortened: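 Two reagent solutions held at 4 deg C in the dark were dispensed, compounds pinned at 23 nl, and the mixture incubated 2 h at room temperature. Read-out: fluorescence polarization of VDR–SRC2-3 peptide binding.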
% is set by controls: 0 for no effect and ±100 for the full control effect; potency is the fitted concentration of half-maximal effect.

Potency, active:
CN(C)S(=O)(=O)c1cccc(C(=O)Nc2cc(S(=O)(=O)N3CCOCC3)ccc2N2CCCC2)c1 44.7 µM
Cc1ccc(-n2c(N)c(C(=O)N3CCN(C)CC3)sc2=S)cc1 25.1 µM
CCC(CC)c1nnc(NC(=O)C2CC(=O)N(CCc3ccc(F)cc3)C2)s1 (centres undefined) 79.4 µM
Cc1ccc(C)c(-n2sc3ccc(F)cc3c2=O)c1 20 µM
O=c1c(C(c2ccc(O)cc2)c2c(O)nc3n(c2=O)CCCS3)c(O)nc2n1CCCS2 50.1 µM
COc1cccc(F)c1C(C[N+](=O)[O-])c1c(N)n(C)c(=O)n(C)c1=O (centres undefined) 79.4 µM
Cc1cc(C(=O)OCC(=O)Nc2ccc(F)c(F)c2F)c(C)o1 79.4 µM
COC(=O)CCCCCN1C(=O)/C(=C\c2ccncc2)SC1=S 79.4 µM
COC(=O)c1sc(-c2ccc(Cl)cc2)cc1NC(=O)/C=C/C(=O)O 31.6 µM

Potency, inconclusive:
O=C(CSc1ccc(Br)cc1)NC1CCS(=O)(=O)C1 (centres undefined) 79.4 µM [inhibitor, single point]
O=C(NCCn1cc(SCc2ccccc2)c2ccccc21)c1c(F)cccc1F 79.4 µM [inhibitor, partial curve, poor fit]
Cc1ccc(C)c(NC(=O)COC(=O)c2nn(C)c(=O)c3ccccc23)c1 89.1 µM [inhibitor, partial curve, poor fit]
O=C(O)c1cc(-c2ccccc2)nn1Cc1ccccc1 89.1 µM [inhibitor, single point]
COc1ccc(-c2c3c([nH]c(=S)c2C#N)CCC3)cc1 56.2 µM [inhibitor, partial curve, poor fit]
CC(=O)Nc1nc(=O)c2ccccc2s1 56.2 µM [inhibitor, partial curve, poor fit]
Nc1ncc(Br)cc1S(=O)(=O)Nc1cc(C(F)(F)F)cc(C(F)(F)F)c1 31.6 µM [inhibitor, partial curve, poor fit]
COc1cc(Cl)c(C)cc1NC(=O)CSc1cc(Cl)ccc1Cl 89.1 µM [inhibitor, single point]
CCOC(=O)CCCCCCCCCCCCC1C=CCC1 (centres undefined) 50.1 µM [inhibitor, partial curve]
Cc1ccc(NC(=O)c2ccc3c(c2)CCN3S(C)(=O)=O)cc1C 28.2 µM [inhibitor, partial curve, poor fit]
O=C(CCCNC(=O)c1ccc(Cl)cc1)NCc1ccc(F)cc1 56.2 µM [inhibitor, partial curve, poor fit]
O=C(Nc1ccccc1)c1ccc2nc(-c3ccco3)c(-c3ccco3)nc2c1 56.2 µM [inhibitor, partial curve, poor fit]
CCN1CCOC(=O)C1CC(=O)Nc1ccccc1C(F)(F)F (centres undefined) 89.1 µM [inhibitor, partial curve]
CCN1c2ccccc2NC2N=C(OC)C(c3ccccc3)C21 (centres undefined) 100 µM [inhibitor, single point]
Cc1cc(/C=C2\SC(=O)N(C)C2=O)c(C)n1-c1ccc(O)cc1 89.1 µM [inhibitor, partial curve, poor fit]
CC(C)(C)OC1NS(=O)(=O)OCC1NCOC(Cl)(Cl)Cl (centres undefined) 56.2 µM [inhibitor, partial curve, poor fit]
COc1ccccc1OCC(=O)Nc1ccc2c(c1)OCO2 8.91 µM [inhibitor, full curve]
O=C1NC(=O)C(c2cn(-c3ccccc3)nc2-c2ccc(F)cc2)N1 (centres undefined) 3.98 µM [inhibitor, single point]
COc1cc(-c2noc(C)c2/C=C/c2ccc(C(=O)O)cc2)cc(OC)c1OC 89.1 µM [inhibitor, single point]
COc1ccc(S(=O)(=O)N(CC(=O)NC2CC3CCC2C3)c2ccccc2OC)cc1 (centres undefined) 56.2 µM [inhibitor, partial curve, poor fit]
O=C1CCCN1CCC12CC3CC(CC(C3)C1)C2 3.55 µM [inhibitor, partial curve, poor fit]
Cc1oc2c(c1C(=O)c1ccc(Cl)cc1)C(=O)C(=O)c1ccccc1-2 3.16 µM [inhibitor, full curve, poor fit]
O=C(CCc1[nH]c2ccccc2c1Sc1ccccc1)N(CCO)CCO 70.8 µM [inhibitor, single point]
CN1C(=S)N(c2ccccc2)C(=O)/C1=C/c1cccs1 89.1 µM [inhibitor, single point]
O=C(COc1cccc(Cl)c1)NNC(=S)Nc1ccccc1 31.6 µM [inhibitor, partial curve, poor fit]
COc1ccc(CCNC(=O)c2cc(C3CC3)on2)cc1OC 2.51 µM [inhibitor, full curve]
COc1ccccc1C(=O)NCCC(=O)NCc1ccccn1 63.1 µM [inhibitor, partial curve, poor fit]
Cc1nc(C#N)c(N/N=C/c2cccc(Cl)c2)o1 56.2 µM [inhibitor, partial curve, poor fit]
O=C(O)c1ccc(N/N=C/c2ccc(-c3cc(Cl)ccc3Cl)o2)cc1 25.1 µM [inhibitor, partial curve, poor fit]
CC(C)(CC(=O)O)CC(=O)N1CCCN(c2nccc(C(F)(F)F)n2)CC1 100 µM [inhibitor, single point]
CC1(C)C2CC[C@]3(C)C(CC=C4[C@@H]5C[C@@](C)(CO)[C@@H](O)C[C@]5(C(=O)O)CC[C@]43C)[C@@]2(C)CC[C@@H]1O (some centres undefined) 63.1 µM [inhibitor, partial curve, poor fit]
CCCCC(C)(C)[C@H](O)/C=C/[C@H]1[C@H](O)CC(=O)[C@@H]1C/C=C\CCCC(=O)O 70.8 µM [inhibitor, partial curve]
Cc1cc(C)c2nc(-c3ccco3)cc(C(=O)O)c2c1 89.1 µM [inhibitor, partial curve, poor fit]
COc1ccc(C2=NNC(=O)C2(C)Br)cc1 (centres undefined) 25.1 µM [inhibitor, partial curve, poor fit]
O=C1/C(=C\c2cc([N+](=O)[O-])ccc2O)SC(=S)N1Cc1ccc(Cl)cc1 0.631 µM [inhibitor, full curve, poor fit]
CCOC(=O)c1sc(=S)n2c1[nH]c(=O)c1ccc(C(=O)OC)cc12 79.4 µM [inhibitor, partial curve, poor fit]
N#Cc1c(-c2ccccc2)cc(-c2ccccc2)nc1SCCC(=O)O 89.1 µM [inhibitor, single point]
CCOC(=O)c1sc2cc([N+](=O)[O-])cc(SCC(=O)OC)c2c1N 50.1 µM [inhibitor, partial curve, poor fit]

Max response, negative = inhibition, inactive:
Cc1cc(C(=O)N2CCCC(N3CCN(c4cccc(C(F)(F)F)c4)CC3)C2)nn1C (centres undefined) 5.49%
Cc1ccc(C(=O)NCC(=O)OCC(=O)NCCc2ccccc2)s1 -17.8%
COCCN1C(=O)C(O)=C(C(C)=O)C1c1ccc(OC)c(OC)c1 (centres undefined) 17.3%
Cc1c(CN(C)C)c2c(n1Cc1ccccc1)C(=O)c1ccc(Br)cc1-2 18.1%
CCCCCn1c(CCCNC(=O)c2ccccc2OC)nc2ccccc21 10.5%
Cc1ccc(S(=O)(=O)NN2C(=O)/C(=C/c3cccs3)SC2=S)cc1 -15.4%
Cc1cccc(C(=O)NC2(C(F)(F)F)N=C(c3ccccc3)N(Cc3ccccc3)C2=O)c1 (centres undefined) 5.03%
Cc1ccc(OCc2nnc(NC(=O)c3ccco3)s2)cc1 7.44%
CC1CCc2c(C(=O)NCC3CCCO3)csc2C1 (centres undefined) -2.4%
COc1ccc2oc(=O)c(C(=O)NCCc3c(C)[nH]c4c(C)cccc34)cc2c1 2.1%
CCOC(=O)c1c(C)oc2nc(C)nc(N3CCN(c4ccc(C)cc4C)CC3)c12 18.8%
C=C(C1=CCN(S(=O)C(C)(C)C)[C@@H]1CCO)c1ccccc1 (some centres undefined) -12.4%
COc1ccccc1N1CCN(Cc2ccc(-c3ccccc3[N+](=O)[O-])o2)CC1 -0.535%
Cc1cc(C)n2nc(CNC(=O)c3cccc(Cl)c3)nc2n1 8.89%
Cc1ccc(/C=c2\sc3nc(-c4ccco4)nn3c2=O)o1 -8.76%
COc1cc(OC)c(OC)cc1CN1CCN(Cc2ccc(SC)cc2)CC1 -2.71%
CCCc1nc2c(sc3nc4c(cc32)COC(C)(C)C4)c(=O)n1Cc1ccco1 1.88%
O=C(CNS(=O)(=O)c1ccccc1)NCc1ccco1 2.63%
COc1cccc2c1N(C)C(=O)CC21C=CC(=O)C=C1 41.5%
CN(C(=O)CSc1cc(Cl)ccc1Cl)C1CCS(=O)(=O)C1 (centres undefined) 13.8%
CCOC(=O)c1cccc(NC(=O)CC2C(=O)N(c3ccc(F)cc3)C(=O)N2C(C)C)c1 (centres undefined) -1.5%
COc1ccc(C)cc1NS(=O)(=O)c1ccc2c(c1)[C@H]1C=CC[C@H]1[C@@H](c1cccc(Cl)c1)N2 -8.4%

Pulled by structure from the entries so far, seven records:
Max response, negative = inhibition, inactive:
C=C(C1=CCN(S(=O)C(C)(C)C)[C@@H]1CCO)c1ccccc1 (some centres undefined) -12.4%
O=C(CNS(=O)(=O)c1ccccc1)NCc1ccco1 2.63%
COc1ccccc1N1CCN(Cc2ccc(-c3ccccc3[N+](=O)[O-])o2)CC1 -0.535%
Cc1ccc(OCc2nnc(NC(=O)c3ccco3)s2)cc1 7.44%
CN(C(=O)CSc1cc(Cl)ccc1Cl)C1CCS(=O)(=O)C1 (centres undefined) 13.8%
COc1ccc2oc(=O)c(C(=O)NCCc3c(C)[nH]c4c(C)cccc34)cc2c1 2.1%
Cc1ccc(/C=c2\sc3nc(-c4ccco4)nn3c2=O)o1 -8.76%
